Reference: paper PMC9070665
Results are given in words; binding and its absence hold for the method and conditions named. In cells and extracts the contact can be indirect. Some binding calls cover weakened binding; strength is not graded here.

The chains behind the UniProt entries cited, without tags or fusion partners.
UniProt Q96S21: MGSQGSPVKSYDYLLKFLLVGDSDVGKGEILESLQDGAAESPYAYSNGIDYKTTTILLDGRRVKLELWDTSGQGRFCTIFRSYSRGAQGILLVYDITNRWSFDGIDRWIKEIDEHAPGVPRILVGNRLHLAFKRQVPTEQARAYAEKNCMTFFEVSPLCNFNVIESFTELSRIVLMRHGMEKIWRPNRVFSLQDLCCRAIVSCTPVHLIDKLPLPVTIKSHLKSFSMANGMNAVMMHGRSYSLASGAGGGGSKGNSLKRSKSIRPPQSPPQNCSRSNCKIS
UniProt Q93034: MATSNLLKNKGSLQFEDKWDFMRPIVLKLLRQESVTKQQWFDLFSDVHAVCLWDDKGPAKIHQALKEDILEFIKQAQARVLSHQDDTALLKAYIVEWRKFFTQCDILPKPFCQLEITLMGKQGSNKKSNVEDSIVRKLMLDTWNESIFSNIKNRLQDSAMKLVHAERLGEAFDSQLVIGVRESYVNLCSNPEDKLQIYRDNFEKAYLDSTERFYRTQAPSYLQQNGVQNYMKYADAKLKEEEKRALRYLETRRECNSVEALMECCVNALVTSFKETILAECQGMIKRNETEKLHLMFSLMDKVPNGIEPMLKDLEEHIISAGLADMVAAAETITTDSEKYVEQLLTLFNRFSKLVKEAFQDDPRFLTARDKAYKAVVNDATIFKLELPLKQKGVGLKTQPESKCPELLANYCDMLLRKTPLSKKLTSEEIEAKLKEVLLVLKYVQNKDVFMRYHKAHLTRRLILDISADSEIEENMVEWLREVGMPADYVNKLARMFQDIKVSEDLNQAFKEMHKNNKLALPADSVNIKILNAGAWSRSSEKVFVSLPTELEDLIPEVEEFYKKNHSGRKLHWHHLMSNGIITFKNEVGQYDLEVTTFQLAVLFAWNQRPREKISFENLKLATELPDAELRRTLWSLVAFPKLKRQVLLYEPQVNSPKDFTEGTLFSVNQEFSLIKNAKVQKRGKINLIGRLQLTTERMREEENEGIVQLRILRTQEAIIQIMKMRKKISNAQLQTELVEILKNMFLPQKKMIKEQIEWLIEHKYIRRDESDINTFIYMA

B1: ankyrin repeat domain 28 (ANKRD28) (protein, UniProt O15084 1-1053)
chain: MAFLKLRDQPSLVQAIFNGDPDEVRALIFKKEDVNFQDNEKRTPLHAAAYLGDAEIIELLILSGARVNAKDSKWLTPLHRAVASCSEEAVQVLLKHSADVNARDKNWQTPLHIAAANKAVKCAEALVPLLSNVNVSDRAGRTALHHAAFSGHGEMVKLLLSRGANINAFDKKDRRAIHWAAYMGHIEVVKLLVSHGAEVTCKDKKSYTPLHAAASSGMISVVKYLLDLGVDMNEPNAYGNTPLHVACYNGQDVVVNELIDCGAIVNQKNEKGFTPLHFAAASTHGALCLELLVGNGADVNMKSKDGKTPLHMTALHGRFSRSQTIIQSGAVIDCEDKNGNTPLHIAARYGHELLINTLITSGADTAKRGIHGMFPLHLAALSGFSDCCRKLLSSGFDIDTPDDFGRTCLHAAAAGGNLECLNLLLNTGADFNKKDKFGRSPLHYAAANCNYQCLFALVGSGASVNDLDERGCTPLHYAATSDTDGKCLEYLLRNDANPGIRDKQGYNAVHYSAAYGHRLCLQLIASETPLDVLMETSGTDMLSDSDNRATISPLHLAAYHGHHQALEVLVQSLLDLDVRNSSGRTPLDLAAFKGHVECVDVLINQGASILVKDYILKRTPIHAAATNGHSECLRLLIGNAEPQNAVDIQDGNGQTPLMLSVLNGHTDCVYSLLNKGANVDAKDKWGRTALHRGAVTGHEECVDALLQHGAKCLLRDSRGRTPIHLSAACGHIGVLGALLQSAASMDANPATADNHGYTALHWACYNGHETCVELLLEQEVFQKTEGNAFSPLHCAVINDNEGAAEMLIDTLGASIVNATDSKGRTPLHAAAFTDHVECLQLLLSHNAQVNSVDSTGKTPLMMAAENGQTNTVEMLVSSASAELTLQDNSKNTALHLACSKGHETSALLILEKITDRNLINATNAALQTPLHVAARNGLTMVVQELLGKGASVLAVDENGYTPALACAPNKDVADCLALILATMMPVSSSSPLSSLTFNAINRYTNTSKTVSFEALPIMRNEPSSYCSFNNIGGEQEYLYTDVDELNDSDSETY
B2: PP6R1 (protein, UniProt Q9UPN7 1-881)
chain: MFWKFDLHTSSHLDTLLEREDLSLPELLDEEDVLQECKVVNRKLLDFLLQPPHLQAMVAWVTQEPPDSGEERLRYKYPSVACEILTSDVPQINDALGADESLLNRLYGFLQSTGSLNPLLASFFSKVMGILINRKTDQLVSFLRKKDDFVDLLLQHIGTSAIMDLLLRLLTCVERPQLRQDVVNWLNEEKIVQRLIEQIHPSKDENQHSNASQSLCDIIRLSREQMIQVQDSPEPDQLLATLEKQETIEQLLSNMFEGEQSQSVIVSGIQVLLTLLEPRRPRSESVTVNSFFSSVDGQLELLAQGALESTVSSVGALHALRPRLSCFHQLLLEPPKLEPLQMTWGMLAPPLGNTRLHVVKLLASALSANDAALTHELLALDVPNTMLDLFFHYVFNNFLHAQVEGCVSTMLSLGPPPDSSPETPIQNPVVKHLLQQCRLVERILTSWEENDRVQCAGGPRKGYMGHLTRVAGALVQNTEKGPNAEQLRQLLKELPSEQQEQWEAFVSGPLAETNKKNMVDLVNTHHLHSSSDDEDDRLKEFNFPEEAVLQQAFMDFQMQRMTSAFIDHFGFNDEEFGEQEESVNAPFDKTANITFSLNADDENPNANLLEICYKDRIQQFDDDEEEEDEEEAQGSGESDGEDGAWQGSQLARGARLGQPPGVRSGGSTDSEDEEEEDEEEEEDEEGIGCAARGGATPLSYPSPGPQPPGPSWTATFDPVPTDAPTSPRVSGEEELHTGPPAPQGPLSVPQGLPTQSLASPPARDALQLRSQDPTPPSAPQEATEGSKVTEPSAPCQALVSIGDLQATFHGIRSAPSSSDSATRDPSTSVPASGAHQPPQTTEGEKSPEPLGLPQSQSAQALTPPPIPNGSAPEGPASPGSQ
B3: PP6R1 (endogenous in 293T cells) (protein, UniProt Q9UPN7 1-881)
chain: B2 chain
B4: ANKRD28 (endogenous in 293T cells) (protein, UniProt O15084 1-1053)
chain: B1 chain
B5: ANKRD52 (endogenous in 293T cells) (protein, UniProt Q8NB46 1-1076)
chain: MGILSITDQPPLVQAIFSRDVEEVRSLLSQKENINVLDQERRTPLHAAAYVGDVPILQLLLMSGANVNAKDTLWLTPLHRAAASRNEKVLGLLLAHSADVNARDKLWQTPLHVAAANRATKCAEALAPLLSSLNVADRSGRSALHHAVHSGHLETVNLLLNKGASLNVCDKKERQPLHWAAFLGHLEVLKLLVARGADLGCKDRKGYGLLHTAAASGQIEVVKYLLRMGAEIDEPNAFGNTALHIACYLGQDAVAIELVNAGANVNQPNDKGFTPLHVAAVSTNGALCLELLVNNGADVNYQSKEGKSPLHMAAIHGRFTRSQILIQNGSEIDCADKFGNTPLHVAARYGHELLISTLMTNGADTARRGIHDMFPLHLAVLFGFSDCCRKLLSSGQLYSIVSSLSNEHVLSAGFDINTPDNLGRTCLHAAASGGNVECLNLLLSSGADLRRRDKFGRTPLHYAAANGSYQCAVTLVTAGAGVNEADCKGCSPLHYAAASDTYRRAEPHTPSSHDAEEDEPLKESRRKEAFFCLEFLLDNGADPSLRDRQGYTAVHYAAAYGNRQNLELLLEMSFNCLEDVESTIPVSPLHLAAYNGHCEALKTLAETLVNLDVRDHKGRTALFLATERGSTECVEVLTAHGASALIKERKRKWTPLHAAAASGHTDSLHLLIDSGERADITDVMDAYGQTPLMLAIMNGHVDCVHLLLEKGSTADAADLRGRTALHRGAVTGCEDCLAALLDHDAFVLCRDFKGRTPIHLASACGHTAVLRTLLQAALSTDPLDAGVDYSGYSPMHWASYTGHEDCLELLLEHSPFSYLEGNPFTPLHCAVINNQDSTTEMLLGALGAKIVNSRDAKGRTPLHAAAFADNVSGLRMLLQHQAEVNATDHTGRTALMTAAENGQTAAVEFLLYRGKADLTVLDENKNTALHLACSKGHEKCALMILAETQDLGLINATNSALQMPLHIAARNGLASVVQALLSHGATVLAVDEEGHTPALACAPNKDVADCLALILSTMKPFPPKDAVSPFSFSLLKNCSIAAAKTVGGCGALPHGASCPYSQERPGAIGLDGCYSE

What was measured:
FLAG-Rab40c (human) [1] = biological target: FLAG-Rab40c (human) (UniProt Q96S21); experiment: co-IP; anti-FLAG IP from lysates of MDA-MB-231 cells stably expressing or transfected with FLAG-Rab40c or FLAG-Rab40c-4A, blots for endogenous proteins; lysis buffer 20 mM Tris-HCl pH 7.6, 150 mM NaCl, 2 mM EDTA, 1% Triton X-100, 10% glycerol; 4°C; washes with lysis buffer plus 0.5 M NaCl
FLAG-Rab40c (human) [2] = biological target: FLAG-Rab40c (human) (UniProt Q96S21); experiment: co-IP; lysates (PBS, 1% Triton X-100) of MDA-MB-231 cells expressing FLAG-Rab40c, 1 mM EDTA 1 min 37°C, then 5 mM MgCl2 with 1 mM GDP or 1 mM GTPγS 10 min 37°C; anti-FLAG IP, blot for ANKRD28
FLAG-Rab40c (human) [3] = biological target: FLAG-Rab40c (human) (UniProt Q96S21); experiment: co-IP; anti-FLAG IP from lysates of MDA-MB-231 cells stably expressing or transfected with FLAG-Rab40c or FLAG-Rab40c-4A, blots for endogenous proteins; lysis buffer 20 mM Tris-HCl pH 7.6, 150 mM NaCl, 2 mM EDTA, 1% Triton X-100, 10% glycerol; 4°C; washes with lysis buffer plus 0.5 M NaCl; remark: listed apart in the source
[4] = biological target: endogenous Rab40c (human (endogenous in MDA-MB-231)) (UniProt Q96S21); experiment: co-IP; anti-Rab40c IP of endogenous Rab40c from MDA-MB-231 lysates; blots with anti-panANKRD, anti-PP6R1, anti-PP6R2, anti-PP6R3
[5] = biological target: FLAG-Rab40c (in 293T cells) (human) (UniProt Q96S21); experiment: co-IP; 293T cells co-transfected with FLAG-Rab40c and scrambled siRNA or siRNAs against ANKRD28, ANKRD52, PP6R1 (alone, or ANKRD28 with ANKRD52); anti-FLAG IP, blots for endogenous ANKRD28, ANKRD52, PP6R1

Molecule | binding (FLAG-Rab40c (human) [3]) | binding [5] | other results
Cullin5 (from UniProt Q93034 1-780) | – | – | binding (FLAG-Rab40c (human) [1]): binds
B1 | binds | – | binding (FLAG-Rab40c (human) [2]): binds
B2 | binds | – | binding [4]: binds
B3 | – | binds | –
B4 | – | binds | –
B5 | – | binds | –
